The source of these data is patent publication US11905338B2, “Peptides for use as cell-penetrating peptides” (CENTRE NATIONAL DE LA RECHERCHE SCIENTIFIQUE, priority 2018, dated 2024).

Where no end group is shown, it is not given here.

In this data set the test system is plasmid pGL3. Description: Agarose gel shift assay of CPP:plasmid complexes. Conditions: agarose gel 0.5%. The class given is binding. From the text:
The CPP1 and CPP2 peptides formed complexes when they were associated with oligonucleotides such as a plasmid (FIG. 3). The formation of the complexes was visualized using an agarose gel (0.5%) as described above for the complexation of the CPP with a siRNA. At a charge ratio (CR) corresponding to the charge neutrality (CR=1) between the CPP (positive charge) and the plasmid (negative charge), the plasmid was complexed by the CPP. The bulky CPP:plasmid complex was then no longer able to migrate into the agarose gel.
The intensity of the plasmid band alone was normalized to 100%. By successively increasing the CPP:plasmid charge ratio, the complexation of the pGL3 plasmid (6.56 kbp) was obtained, proportionally reducing its migration in the agarose gel (0.5%).
A general note: In EMSA bound probe runs differently from free probe, usually more slowly.

In the case of “LLRLLRWWWRLLRLL-NH2 [CPP2, LLRLLRWWWRLLRLL]”, the “Charge ratio (CR) at which the plasmid was complexed” value came to 1.
The same measure for “LLWRLWRLLWRLWRLL-NH2 [CPP1, LLWRLWRLLWRLWRLL]”: 1.
